Results from publication PMC9949642.
Results are given in words; binding and its absence hold for the method and conditions named. In cells and extracts the contact can be indirect. Some results given as binding are weak or reduced against the parent protein; the word gives no strength. Tags and fused reporters may be left off the sequences shown.

Target: T1, ZTF-7::GFP::3xFLAG (C. elegans) (UniProt Q20448)
T1 sequence: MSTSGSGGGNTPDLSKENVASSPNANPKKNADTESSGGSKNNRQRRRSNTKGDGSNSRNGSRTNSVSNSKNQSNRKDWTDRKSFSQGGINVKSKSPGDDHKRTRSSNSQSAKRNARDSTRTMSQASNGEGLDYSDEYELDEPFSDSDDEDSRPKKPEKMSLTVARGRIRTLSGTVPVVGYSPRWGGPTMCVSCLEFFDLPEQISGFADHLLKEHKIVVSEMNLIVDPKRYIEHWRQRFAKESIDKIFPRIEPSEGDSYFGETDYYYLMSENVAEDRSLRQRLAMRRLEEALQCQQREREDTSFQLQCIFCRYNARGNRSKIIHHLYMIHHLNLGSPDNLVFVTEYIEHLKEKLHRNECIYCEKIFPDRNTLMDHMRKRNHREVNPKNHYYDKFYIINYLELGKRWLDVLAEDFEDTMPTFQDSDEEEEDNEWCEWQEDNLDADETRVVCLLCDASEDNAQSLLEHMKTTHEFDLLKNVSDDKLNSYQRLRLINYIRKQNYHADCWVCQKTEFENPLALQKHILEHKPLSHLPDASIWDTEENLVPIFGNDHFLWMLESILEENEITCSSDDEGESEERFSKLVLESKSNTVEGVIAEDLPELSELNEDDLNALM
Test: co-IP; L3/L4 animals expressing ZTF-7::GFP::3xFLAG and 3xHA::RPS-2; IP with anti-FLAG antibody, RPS-2 detected by anti-HA antibody; with and without cold-warm shock (no significant effect detected)

B1: 3xHA::RPS-2 (protein, UniProt P51403 1-272)
chain: MADRGGFQSGFGGRGGGRGGARPAGDRPAGRGGRGGRGGRGGRGGRAGRGGEKETEWTPVTKLGRLVKEKKITTLEEIYLNSLPIKEFEIIDALCSNLKDEVLKISPVQKQTTAGQRTRFKAFVAIGDHAGHVGLGVKCSKEVATAIRGAIVAAKLAVVPVRRGYWGNKIGLPHTVPCKVTGKCASVMVRLIPAPRGTGIVSAPVPKKLLHMAGIEDCYTAAKGSTATLGNFAKATYAALQRTYSYLTPDLWKEEALEKSPYQRHHEYLARN
binding: binds
